Where a name gives a salt, the structure may show the parent alone. The list shows a part of the results. Most values lie at the level of the controls, where differences are scatter.
Tested on: hPSC-derived cortical neurons (WA09)
Assay: total neurite length per nucleus (MAP2) z-score; higher = more neurite growth
Details: 5 µM; treatment: days 7-14 after plating, readout day 21

SMILES | total neurite length per nucleus (z-score)
CNC[C@H](O)c1cccc(O)c1 [Phenylephrine HCl] | -1.59
Cc1c(C(=O)NN2CCCCC2)nn(-c2ccc(Cl)cc2Cl)c1-c1ccc(I)cc1 | -0.367
Cc1cnc(NC(=O)Nc2cc(Br)c(C)cc2OC[C@@H]2CNCCO2)cn1 | -0.249
CN(C)CCN1C(=O)c2cccc3cc(N)cc(c23)C1=O [Amonafide] | 1.07
Cc1oncc1C(=O)Nc1ccc(C(F)(F)F)cc1 [Leflunomide] | 1.5
O=C(NNc1ccccc1)c1ccncc1 | -0.565
CN1CCC(COc2cnc(-c3cccc(Cn4nc(-c5cccc(C#N)c5)ccc4=O)c3)nc2)CC1 | -0.614
O=C(Nc1cccc(C(F)(F)F)c1)Nc1cc(S(=O)(=O)NC2CC2)ccc1-c1ccsc1 | -0.408
O=C(O)CCCCCCCC(=O)O [Azelaic acid] | -0.473
CN1CCN(C(=O)/C=C/c2ccc([N+](=O)[O-])o2)CC1 | -1.25
Cc1ccc(C(=O)N(CCCN)[C@@H](c2nc3cc(Cl)ccc3c(=O)n2Cc2ccccc2)C(C)C)cc1 | -3.71
Nc1ccc(C(=O)NCC(=O)O)cc1 [4-Aminohippuric Acid] | 1.07
CC(=O)NC[C@H]1CN(c2ccc(N3CCOCC3)c(F)c2)C(=O)O1 [Linezolid] | 0.156
Cc1nn(C)c(COc2ccc(N3CCN(S(=O)(=O)N(C)C)CC3)cc2)c1-c1cccc2c(CCCOc3cccc4ccccc34)c(C(=O)O)n(CCN3CCOCC3)c12 | 1.53
O=C1CN(/N=C/c2ccc([N+](=O)[O-])o2)C(=O)N1 [Nitrofurantoin] | -0.285
Nc1nc2[nH]cc(CCc3ccc(C(=O)N[C@@H](CCC(=O)O)C(=O)O)cc3)c2c(=O)[nH]1 [Pemetrexed] | 1.12
C[C@@H]1COC(Nc2ccc3ncnc(Nc4ccc(OCc5nccs5)c(Cl)c4)c3c2)=N1 [Varlitinib] | 0.117
COc1ccc(/C=C\c2cc(OC)c(OC)c(OC)c2)cc1O [Combretastatin A4] | -4.37
CN(C)c1ccc(C(=C2C=CC(=[N+](C)C)C=C2)c2ccc(N(C)C)cc2)cc1 [Crystal Violet] | -4.4
COc1cc2nc(N3CCN(C(=O)c4ccco4)CC3)nc(N)c2cc1OC [Prazosin HCl] | 0.439

Taken from above.
CN(C)c1ccc(C(=C2C=CC(=[N+](C)C)C=C2)c2ccc(N(C)C)cc2)cc1 [Crystal Violet] | total neurite length per nucleus (z-score): -4.4
Cc1ccc(C(=O)N(CCCN)[C@@H](c2nc3cc(Cl)ccc3c(=O)n2Cc2ccccc2)C(C)C)cc1 | total neurite length per nucleus (z-score): -3.71

(listing goes on)

SMILES | total neurite length per nucleus (z-score)
CC(=O)OCC[N+](C)(C)C [Acetylcholine Chloride] | -0.429
CN[C@@H]1[C@@H](O)[C@@H](O[C@@H]2[C@@H](O)[C@H](O[C@H]3OC(CN)=CC[C@H]3N)[C@@H](N)C[C@H]2N)OC[C@]1(C)O [Sisomicin sulfate] | 1.73
CCCCOC(=O)c1ccc(N)cc1 [Butamben] | 0.52
CN(C)CCc1c[nH]c2ccc(CS(=O)(=O)N3CCCC3)cc12 [Almotriptan Malate] | 0.0619
Cc1ccc(Nc2c(F)cccc2Cl)c(CC(=O)O)c1 [Lumiracoxib] | -0.069
Nc1ccc(C(=O)O)cc1 [4-Aminobenzoic acid] | 0.361
C[C@]12CCC(=O)C=C1CC[C@@H]1[C@@H]2[C@@H](O)C[C@@]2(C)[C@H]1CC[C@]2(O)C(=O)CO [Hydrocortisone] | 0.666
CC(C)c1cc(-c2ccc(F)c3ccccc23)nc(N)n1 | 1.33
CCN(CC)CCOC(=O)C1(C2CCCCC2)CCCCC1 [Dicyclomine HCl] | -0.558
C#CCN[C@@H]1CCc2ccccc21 [Rasagiline Mesylate] | 1.04
CCCCc1nc2cc(/C=C/C(=O)NO)ccc2n1CCN(CC)CC [Pracinostat (SB939)] | -3
C1N2CN3CN1CN(C2)C3 [Methenamine] | 1.03
COc1cc2ncnc(Sc3nnc(C)s3)c2cc1OC | 0.983
NC(=O)c1ccc(N(C(N)=O)c2c(F)cccc2F)nc1-c1ccc(F)cc1F | 0.484
CNC[C@H](O)c1ccc(O)c(O)c1 [Epinephrine HCl] | -0.168
O=C(NCCO[N+](=O)[O-])c1cccnc1 [Nicorandil] | -0.302
CCOc1ccc2ccccc2c1C(=O)N[C@@H]1C(=O)N2[C@@H]1SC(C)(C)[C@@H]2C(=O)O [Nafcillin Sodium] | -0.661
COc1ccccc1N1CCN(CCN(C(=O)C2CCCCC2)c2ccccn2)CC1 | 1.01
C[C@]12CC[C@@H]3c4ccc(O)cc4CC[C@H]3[C@@H]1CC[C@@H]2O [Estradiol] | -0.022
COc1cc2c(c(OC)c1OC)-c1c(cc3c(c1OC)OCO3)CC(C)C(C)C2 (stereo not given) [Schisandrin B (Sch B)] | -0.203
